Assay [1] deals with T1, AtHAK1 (Arabidopsis HDS-associated receptor-like kinase 1), cell-free synthesised, biotinylated (bls) copy and FLAG-tagged copy (Arabidopsis) (UniProt C0LGD7).
T1 sequence (chain, biotin on the biotin ligation site (bls copy only)): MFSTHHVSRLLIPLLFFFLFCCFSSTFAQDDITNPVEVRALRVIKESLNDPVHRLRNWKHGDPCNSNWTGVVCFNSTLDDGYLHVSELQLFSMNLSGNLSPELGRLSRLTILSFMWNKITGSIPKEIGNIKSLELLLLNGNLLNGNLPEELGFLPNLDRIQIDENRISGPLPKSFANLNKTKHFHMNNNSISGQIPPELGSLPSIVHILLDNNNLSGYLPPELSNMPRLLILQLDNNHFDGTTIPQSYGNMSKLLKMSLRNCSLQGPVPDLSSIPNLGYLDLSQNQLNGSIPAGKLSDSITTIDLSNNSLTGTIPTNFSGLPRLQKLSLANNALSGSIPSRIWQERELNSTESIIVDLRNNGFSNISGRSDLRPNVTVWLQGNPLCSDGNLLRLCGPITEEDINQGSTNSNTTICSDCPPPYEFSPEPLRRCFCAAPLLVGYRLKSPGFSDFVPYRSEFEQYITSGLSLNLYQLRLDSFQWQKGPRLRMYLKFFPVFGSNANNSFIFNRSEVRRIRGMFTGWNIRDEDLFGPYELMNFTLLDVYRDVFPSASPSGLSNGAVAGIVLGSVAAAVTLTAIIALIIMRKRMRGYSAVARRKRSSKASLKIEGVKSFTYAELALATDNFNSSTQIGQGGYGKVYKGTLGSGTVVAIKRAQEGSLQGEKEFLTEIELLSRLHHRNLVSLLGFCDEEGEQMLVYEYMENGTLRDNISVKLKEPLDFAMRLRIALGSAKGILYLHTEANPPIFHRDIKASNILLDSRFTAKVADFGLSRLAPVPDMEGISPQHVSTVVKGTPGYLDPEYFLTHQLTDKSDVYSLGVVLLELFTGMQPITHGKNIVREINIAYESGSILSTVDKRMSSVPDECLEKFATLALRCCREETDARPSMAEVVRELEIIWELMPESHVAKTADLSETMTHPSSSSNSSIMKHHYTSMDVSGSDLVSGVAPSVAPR
The assay can be described thus: AlphaScreen or HTRF; AlphaScreen between biotinylated and FLAG-conjugated proteins synthesised in a cell-free system. For orientation: In Alpha technology, singlet oxygen from a donor bead excites a nearby acceptor bead.

The target in assay [2] is T2, AtHAK1, FLAG-tagged copy and 3xHA-tagged copy, in Nicotiana benthamiana leaf extract (Arabidopsis) (UniProt C0LGD7).
T2 sequence: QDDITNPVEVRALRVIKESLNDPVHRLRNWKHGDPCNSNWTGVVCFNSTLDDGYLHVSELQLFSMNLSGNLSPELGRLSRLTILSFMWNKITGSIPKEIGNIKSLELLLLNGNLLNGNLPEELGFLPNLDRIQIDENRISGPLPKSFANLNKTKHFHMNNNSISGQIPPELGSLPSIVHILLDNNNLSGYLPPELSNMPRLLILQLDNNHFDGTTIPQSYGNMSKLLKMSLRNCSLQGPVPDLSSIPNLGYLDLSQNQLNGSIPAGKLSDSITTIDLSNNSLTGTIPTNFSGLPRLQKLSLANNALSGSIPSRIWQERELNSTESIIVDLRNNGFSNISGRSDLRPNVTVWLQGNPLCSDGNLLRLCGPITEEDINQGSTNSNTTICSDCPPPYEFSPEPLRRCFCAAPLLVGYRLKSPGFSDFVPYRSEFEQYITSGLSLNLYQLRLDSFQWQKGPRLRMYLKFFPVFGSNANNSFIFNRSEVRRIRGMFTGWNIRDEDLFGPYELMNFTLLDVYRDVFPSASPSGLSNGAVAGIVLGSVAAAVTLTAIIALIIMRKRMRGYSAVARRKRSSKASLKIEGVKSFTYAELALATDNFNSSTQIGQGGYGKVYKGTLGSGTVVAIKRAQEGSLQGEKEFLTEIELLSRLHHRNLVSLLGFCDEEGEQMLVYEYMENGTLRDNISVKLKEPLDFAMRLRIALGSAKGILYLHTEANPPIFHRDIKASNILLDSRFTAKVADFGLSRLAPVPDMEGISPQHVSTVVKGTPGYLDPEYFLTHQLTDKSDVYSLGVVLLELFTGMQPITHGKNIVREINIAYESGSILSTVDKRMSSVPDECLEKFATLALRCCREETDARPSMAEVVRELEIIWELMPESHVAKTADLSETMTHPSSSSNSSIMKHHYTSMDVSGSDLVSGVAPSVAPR
The experiment in a line: co-IP; FLAG- and 3xHA-tagged proteins expressed in N. benthamiana leaves; total protein extract (50 mM Tris-HCl pH 7.5, 150 mM NaCl, 1% NP-40) precipitated overnight at 4 °C with anti-DYKDDDDK-tag magnetic beads; blots with anti-HA and anti-FLAG.

These are yes or no findings as the source states them, for the method shown. For some assays here: In cells and extracts the contact can be indirect. Some binding calls cover weakened binding; strength is not graded here. Where a sequence is shown, tags or fusion partners need not be part of it.

B1: AtHAK1 (Arabidopsis HDS-associated receptor-like kinase 1), cell-free synthesised, biotinylated (bls) copy and FLAG-tagged copy (receptor, UniProt C0LGD7 1-953)
chain: MFSTHHVSRLLIPLLFFFLFCCFSSTFAQDDITNPVEVRALRVIKESLNDPVHRLRNWKHGDPCNSNWTGVVCFNSTLDDGYLHVSELQLFSMNLSGNLSPELGRLSRLTILSFMWNKITGSIPKEIGNIKSLELLLLNGNLLNGNLPEELGFLPNLDRIQIDENRISGPLPKSFANLNKTKHFHMNNNSISGQIPPELGSLPSIVHILLDNNNLSGYLPPELSNMPRLLILQLDNNHFDGTTIPQSYGNMSKLLKMSLRNCSLQGPVPDLSSIPNLGYLDLSQNQLNGSIPAGKLSDSITTIDLSNNSLTGTIPTNFSGLPRLQKLSLANNALSGSIPSRIWQERELNSTESIIVDLRNNGFSNISGRSDLRPNVTVWLQGNPLCSDGNLLRLCGPITEEDINQGSTNSNTTICSDCPPPYEFSPEPLRRCFCAAPLLVGYRLKSPGFSDFVPYRSEFEQYITSGLSLNLYQLRLDSFQWQKGPRLRMYLKFFPVFGSNANNSFIFNRSEVRRIRGMFTGWNIRDEDLFGPYELMNFTLLDVYRDVFPSASPSGLSNGAVAGIVLGSVAAAVTLTAIIALIIMRKRMRGYSAVARRKRSSKASLKIEGVKSFTYAELALATDNFNSSTQIGQGGYGKVYKGTLGSGTVVAIKRAQEGSLQGEKEFLTEIELLSRLHHRNLVSLLGFCDEEGEQMLVYEYMENGTLRDNISVKLKEPLDFAMRLRIALGSAKGILYLHTEANPPIFHRDIKASNILLDSRFTAKVADFGLSRLAPVPDMEGISPQHVSTVVKGTPGYLDPEYFLTHQLTDKSDVYSLGVVLLELFTGMQPITHGKNIVREINIAYESGSILSTVDKRMSSVPDECLEKFATLALRCCREETDARPSMAEVVRELEIIWELMPESHVAKTADLSETMTHPSSSSNSSIMKHHYTSMDVSGSDLVSGVAPSVAPR
modifications: biotin on the biotin ligation site (bls copy only)
Turning to B1, the binding result in assay [1] is “binds”.

B2: AtHAK1, FLAG-tagged copy and 3xHA-tagged copy, in Nicotiana benthamiana leaf extract (receptor, UniProt C0LGD7 29-953)
chain: QDDITNPVEVRALRVIKESLNDPVHRLRNWKHGDPCNSNWTGVVCFNSTLDDGYLHVSELQLFSMNLSGNLSPELGRLSRLTILSFMWNKITGSIPKEIGNIKSLELLLLNGNLLNGNLPEELGFLPNLDRIQIDENRISGPLPKSFANLNKTKHFHMNNNSISGQIPPELGSLPSIVHILLDNNNLSGYLPPELSNMPRLLILQLDNNHFDGTTIPQSYGNMSKLLKMSLRNCSLQGPVPDLSSIPNLGYLDLSQNQLNGSIPAGKLSDSITTIDLSNNSLTGTIPTNFSGLPRLQKLSLANNALSGSIPSRIWQERELNSTESIIVDLRNNGFSNISGRSDLRPNVTVWLQGNPLCSDGNLLRLCGPITEEDINQGSTNSNTTICSDCPPPYEFSPEPLRRCFCAAPLLVGYRLKSPGFSDFVPYRSEFEQYITSGLSLNLYQLRLDSFQWQKGPRLRMYLKFFPVFGSNANNSFIFNRSEVRRIRGMFTGWNIRDEDLFGPYELMNFTLLDVYRDVFPSASPSGLSNGAVAGIVLGSVAAAVTLTAIIALIIMRKRMRGYSAVARRKRSSKASLKIEGVKSFTYAELALATDNFNSSTQIGQGGYGKVYKGTLGSGTVVAIKRAQEGSLQGEKEFLTEIELLSRLHHRNLVSLLGFCDEEGEQMLVYEYMENGTLRDNISVKLKEPLDFAMRLRIALGSAKGILYLHTEANPPIFHRDIKASNILLDSRFTAKVADFGLSRLAPVPDMEGISPQHVSTVVKGTPGYLDPEYFLTHQLTDKSDVYSLGVVLLELFTGMQPITHGKNIVREINIAYESGSILSTVDKRMSSVPDECLEKFATLALRCCREETDARPSMAEVVRELEIIWELMPESHVAKTADLSETMTHPSSSSNSSIMKHHYTSMDVSGSDLVSGVAPSVAPR
With B2, the binding entry in assay [2] was “binds”.

The record behind these values is PMC7210110.
